No constants are given. Whether binding was seen depends on the method and setting. Binding seen in cells or lysates may run through a third protein. A yes stands for co-enrichment or nearness to the bait. Other partners may have been found.
Target: cGAS-FLAG (cyclic GMP-AMP synthase, FLAG-tagged) (not stated (human or mouse cDNA cloned)) (UniProt Q8C6L5)
Test: affinity purification with mass spectrometry

Protein sequences, listed by entry. Tags and fused reporters are not part of them.
UniProt Q8C6L5: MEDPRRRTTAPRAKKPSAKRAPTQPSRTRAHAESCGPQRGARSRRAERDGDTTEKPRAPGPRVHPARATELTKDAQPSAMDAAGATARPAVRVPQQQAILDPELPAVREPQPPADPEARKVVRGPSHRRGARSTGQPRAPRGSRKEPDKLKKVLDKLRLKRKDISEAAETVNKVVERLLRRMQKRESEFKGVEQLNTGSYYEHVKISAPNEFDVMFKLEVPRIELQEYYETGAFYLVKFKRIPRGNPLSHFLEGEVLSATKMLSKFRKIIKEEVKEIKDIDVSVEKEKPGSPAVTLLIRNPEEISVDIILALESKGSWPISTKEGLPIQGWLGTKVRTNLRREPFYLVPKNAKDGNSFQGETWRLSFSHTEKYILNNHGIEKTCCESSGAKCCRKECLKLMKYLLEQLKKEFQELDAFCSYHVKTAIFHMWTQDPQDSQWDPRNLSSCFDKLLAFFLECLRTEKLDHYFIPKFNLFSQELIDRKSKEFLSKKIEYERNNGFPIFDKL

B1: Endogenous TRIM56 (protein, UniProt Q9BRZ2 1-755)
chain: MVSHGSSPSLLEALSSDFLACKICLEQLRAPKTLPCLHTYCQDCLAQLADGGRVRCPECRETVPVPPEGVASFKTNFFVNGLLDLVKARACGDLRAGKPACALCPLVGGTSTGGPATARCLDCADDLCQACADGHRCTRQTHTHRVVDLVGYRAGWYDEEARERQAAQCPQHPGEALRFLCQPCSQLLCRECRLDPHLDHPCLPLAEAVRARRPGLEGLLAGVDNNLVELEAARRVEKEALARLREQAARVGTQVEEAAEGVLRALLAQKQEVLGQLRAHVEAAEEAARERLAELEGREQVARAAAAFARRVLSLGREAEILSLEGAIAQRLRQLQGCPWAPGPAPCLLPQLELHPGLLDKNCHLLRLSFEEQQPQKDGGKDGAGTQGGEESQSRREDEPKTERQGGVQPQAGDGAQTPKEEKAQTTREEGAQTLEEDRAQTPHEDGGPQPHRGGRPNKKKKFKGRLKSISREPSPALGPNLDGSGLLPRPIFYCSFPTRMPGDKRSPRITGLCPFGPREILVADEQNRALKRFSLNGDYKGTVPVPEGCSPCSVAALQSAVAFSASARLYLINPNGEVQWRRALSLSQASHAVAALPSGDRVAVSVAGHVEVYNMEGSLATRFIPGGKASRGLRALVFLTTSPQGHFVGSDWQQNSVVICDGLGQVVGEYKGPGLHGCQPGSVSVDKKGYIFLTLREVNKVVILDPKGSLLGDFLTAYHGLEKPRVTTMVDGRYLVVSLSNGTIHIFRVRSPDS
In the case of B1, the binding is reported as “binds”.
